In patent US9168317B2, “In vivo imaging method of mood disorders” (GE Healthcare Limited, priority 2010, dated 2015):
Structures were worked out from names or drawings and are uncertain.

Experiment: In vivo biodistribution method

Brain 2 min (adult male Wistar rats, 1-3 MBq via lateral tail vein, brain, 2 min after injection): 0.51 % ID/g
OB 30 min (adult male Wistar rats, 1-3 MBq via lateral tail vein, olfactory bulb, 30 min after injection): 0.42 % ID/g
OB:Str 30 min (ratio olfactory bulb:striatum, 30 min after injection, Wistar rats): 3.50
SMILES: CCN(CC)C(=O)C1CC(C)Cc2c1c1ccccc1n2CCF (stereo not drawn)
